# Test results taken from patent US20130071410A1 (published 2013).
# Protein sequences, listed by entry. Tags and fused reporters are not part of them. Lines headed by an entry give the natural chain unless they say otherwise; changes in a name come on top.
# UniProt Q16602: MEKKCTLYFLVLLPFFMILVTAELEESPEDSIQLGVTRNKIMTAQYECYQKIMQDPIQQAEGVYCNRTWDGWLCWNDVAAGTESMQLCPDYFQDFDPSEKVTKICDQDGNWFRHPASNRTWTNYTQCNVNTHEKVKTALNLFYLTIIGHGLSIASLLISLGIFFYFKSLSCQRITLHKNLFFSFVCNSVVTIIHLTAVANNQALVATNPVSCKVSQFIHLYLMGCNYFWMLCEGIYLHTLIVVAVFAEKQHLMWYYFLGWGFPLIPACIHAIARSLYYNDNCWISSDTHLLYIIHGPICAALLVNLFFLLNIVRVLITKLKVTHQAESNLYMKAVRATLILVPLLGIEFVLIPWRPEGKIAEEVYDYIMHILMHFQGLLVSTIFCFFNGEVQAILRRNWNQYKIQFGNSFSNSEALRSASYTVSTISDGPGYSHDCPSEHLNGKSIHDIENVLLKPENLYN
# These are yes or no findings as the source states them, for the method shown. Some binding calls cover weakened binding; strength is not graded here.
# Biological target: T1, Alexa 647-labeled CGRP8-37 peptide analog
# T1 sequence (peptide, N-terminal acetyl (Ac-), C-terminal amide (-NH2), Alexa 647 label): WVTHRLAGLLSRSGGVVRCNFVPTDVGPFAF
# Experiment: FMAT competition
substance,measurement,value
soluble heterodimeric CGRP R ECD fused to human IgG1 Fc (from UniProt Q16602 23-138; O60894 27-117) (Fc fusion),binding,binds
